The source of these data is paper PMC11606419.

Test [1] addresses Tn1a (Tiller number 1a) in pBT3-N, bait of the membrane yeast two-hybrid (rice (Oryza sativa L.)). Description: two-hybrid; membrane system yeast two-hybrid; yeast NYM51 co-transformed with pPR3-N-OsCCC1 and pBT3-N-Tn1a; growth on -His/-Ade/-Leu/-Trp medium for 2-3 days, also with X-β-gal.
Test [2] concerns the target Tn1a-GFP (rice (Oryza sativa L.)). Description: co-IP; Tn1a-GFP and OsCCC1-Myc co-transformed into wild-type rice protoplasts, 15 h in the dark; IP buffer 50 mM Tris-HCl pH 7.5, 150 mM NaCl, 0.2% NP-40, 5 mM DTT; GFP beads 2 h; blot with anti-MYC.
The target of test [3] is Tn1a-cYFP (rice (Oryza sativa L.), Nipponbare). Description: split reporter; BiFC in rice protoplasts; nYFP and cYFP fusions co-transfected; YFP read by confocal microscopy.
For test [4], the target named is Tn1a-nYFP (rice (Oryza sativa L.), Nipponbare). The description is as above.

These are yes or no findings as the source states them, for the method shown. Binding can be weak; no strength is given. For some of these results: Binding seen in cells or lysates may run through a third protein. For some of these results: Tags and fused reporters may be left off the sequences shown.

B1: OsCCC1 (cation-chloride cotransporter 1) in pPR3-N, prey of the membrane yeast two-hybrid (protein, UniProt Q6Z0E2 1-989)
chain: MENGEIEGAADDGVPVPAPPNGRRYRPVGSSDRAVIQMTSMEPGSSSSTAVAAVSGITPQPPRNLTVDPSMQEDHTVSQGDSKLELFGFDSLVNILGLKSMTGEQIQAPSSPRDGEDVAITIGRPKETGPKFGTMMGVFVPCLQNILGIIYYIRFTWIVGMAGVWQSLVLVSFCGACTFLTGISLSAIATNGAMKGGGPYYLIGRALGPEVGVSIGLCFFLGNAVAGSMYVLGAVETFLDAVPSAGFFKESVTVVNNTLVNGTATASTATISTPSLHDLQVYGVIVTILLCFIVFGGVKIINKVAPAFLIPVLFSLLCIYLGVFIAPRHNAPKGITGLSITTFKDNWGSEYQRTNNAGVPDPNGSIYWDFNALVGLFFPAVTGIMAGSNRSASLKDTQRSIPIGTLSATLTTTAMYLFSVLLFGALATREELLTDRLLTATVAWPAPAVIYIGIILSTLGAALQSLTGAPRLLAAIANDDILPVLNYFKVSEGAEPHSATLFTAFICICCVVIGNLDLITPTITMFFLLCYAGVNLSCFLLDLLDAPSWRPRWKFHHWSLSLVGALLCVVIMFLISWSFTVVSLALASLIYYYVSLKGKAGDWGDGFKSAYFQLALRSLRSLGANQVHPKNWYPIPLIFCRPWGKLPENVPCHPKLADFANCMKKKGRGMSIFVSIIDGDYHELAEDAKTACRQLDTYIEYKRCEGVAEIIVAPSMSEGFRSIVQTMGLGNLKPNIIVMRYPEIWRRENLIQIPSTFVSIINDCIIANKAVVIVKGLDEWPNEYQRQYGTIDLYWIVRDGGLMLLLSQLLLTKETFESCKIQVFCIAEEDTDAEELKADVKKFLYDLRMHAEVIVVTMKSWEPHMESSSSGAPQDDSQEAYTSAQRRISTYLSEMKETAQREGHPLMEDGKQVVVNEQKIEKFLYTMFKLNSTILRYSRMAAVVLVSLPPPPLNHPAYFYMEYMDLLVENVPRMLIVRGYRRDVVTFFT
Regarding B1, the binding entry in test [1] is “binds”.

B2: OsCCC1-Myc (protein, UniProt Q6Z0E2 1-989)
chain: B1 chain
For B2, in test [2], the binding result was “binds”.

B3: OsCCC1-nYFP (protein, UniProt Q6Z0E2 1-989)
chain: B1 chain
For the molecule B3, the binding result in test [3] was “binds”.

B4: OsCCC1-cYFP (protein, UniProt Q6Z0E2 1-989)
chain: B1 chain
Regarding B4, the binding result in test [4] is recorded as “binds”.
